Source: the supplement of paper PMC5407854, “Inhibitor of ppGalNAc-T3-mediated O-glycosylation blocks cancer cell invasiveness and lowers FGF23 levels” (eLife, 2017)
Some of the results follow. Small differences around the control level are noise.

Legend:
[1] = test system: ppGalNAc-T3 sensor; assay: T3 sensor activation Q score (MG/GFP ratio z-score vs DMSO controls) (SD units); higher = more sensor activation (inhibition of ppGalNAc-T3 glycosylation); conditions: HEK293 sensor cells; 10 µM; 6 h
Protocol: (§1)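 Cells were treated with compound at 10 uM for 6 h, then MG/GFP ratio was read by flow cytometry (10,000 cells per well, duplicate wells). Q = (R - R_neg)/SD_neg relative to DMSO vehicle controls; the signal rises when the glycosyltransferase is inhibited.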

[2] = test system: ppGalNAc-T2 sensor; assay: T2 sensor activation Q score (MG/GFP ratio z-score vs DMSO controls) (SD units); higher = more sensor activation (inhibition of ppGalNAc-T2 glycosylation); conditions: HEK293 sensor cells; 10 µM; 6 h
Protocol: as §1

Row | Compound | T3 sensor activation Q score [1] | T2 sensor activation Q score [2]
1 | Cc1ccccc1N1CCN(Cc2cccc(F)c2)CC1 | 0.24 | -0.535
2 | COc1ccccc1N1CCN(Cc2ccc(Br)cc2)CC1 | 0.02 | 0.29
3 | Cc1ccccc1N1CCN(Cc2cccc(Cl)c2)CC1 | 0.385 | 0.655
4 | COc1ccc(N2CCN(Cc3cccc([N+](=O)[O-])c3)CC2)cc1 | -0.285 | 
5 | Cc1ccccc1N1CCN(Cc2ccccc2)CC1 | -0.46 | 
6 | Cc1cccc(N2CCN(Cc3cccc(F)c3)CC2)c1C | 0.65 | 
7 | CCN1CCN(Cc2ccc(OC)c(C)c2C)CC1 | 0.01 | 
8 | NCCc1nc2ccccc2[nH]1 | 1.05 | 
9 | O=[N+]([O-])c1ccc(CN2CCN(c3cccc(Cl)c3)CC2)cc1 | 0.14 | 
10 | O=[N+]([O-])c1cccc(CN2CCN(c3ccccc3)CC2)c1 | -0.2 | 
11 | CN1CCN(Cc2cc3c(cc2[N+](=O)[O-])OCO3)CC1 | -0.055 | 
12 | OCCN1CCN(Cc2ccccc2)CC1 | 1.32 | 
13 | Cc1ccccc1N1CCN(Cc2ccc(N(C)C)cc2)CC1 | -0.245 | -1.14
14 | COc1cccc(CN2CCN(c3ccccc3OC)CC2)c1 | -0.75 | 
15 | COc1ccc(CN2CCN(c3ccccc3)CC2)c(OC)c1 | -0.335 | -1.25
16 | c1ccc(CN2CCN(Cc3ccc4c(c3)OCO4)CC2)cc1 | -0.655 | 
17 | CCOc1ccc(/C=C/[N+](=O)[O-])cc1 | -1.23 | 
18 | Cc1ccc(CN2CCN(c3ccccc3C)CC2)cc1 | 0.5 | 
19 | COc1cc(CN2CCN(C)CC2)c([N+](=O)[O-])cc1OC | -1.05 | 

Row | Compound | T3 sensor activation Q score [1] | T2 sensor activation Q score [2]
20 | Clc1cccc(N2CCN(Cc3ccc4c(c3)OCO4)CC2)c1 | 0.07 | 
21 | COc1ccc(CN2CCN(c3ccccc3OC)CC2)cc1C | -0.695 | 
22 | COc1ccc(OC)c(CN2CCN(c3ccc(Cl)cc3)CC2)c1 | 0.46 | -0.39
23 | COc1ccccc1CN1CCN(c2ccc([N+](=O)[O-])cc2)CC1 | 0.025 | 
24 | COc1ccccc1N1CCN(Cc2ccccc2C)CC1 | 0.205 | 
25 | CCN1CCN(Cc2c(Cl)cccc2Cl)CC1 | 0.29 | 
26 | COc1ccc(N2CCN(Cc3ccc(Br)cc3)CC2)cc1 | -0.645 | 
27 | O=c1c2ccccc2nc(/C=C\c2ccc(Cl)cc2)n1-c1ccccc1 | -0.115 | 
28 | Clc1ccccc1CN1CCN(Cc2ccc3c(c2)OCO3)CC1 | -0.92 | 0.04
29 | CCN1CCN(Cc2cccc(OC)c2OC)CC1 | 0.665 | 0.255
30 | COc1ccc(CNCCc2ccccc2)cc1C | -0.14 | 
31 | O=c1cccc2n1C[C@H]1C[C@H]2CN(Cc2cccc(F)c2)C1 | 0.145 | -0.31
32 | CCc1ccc(CN2CCN(C)CC2)cc1 | 0.275 | 
33 | COc1cccc(CN2CCN(C)CC2)c1 | 0.35 | 
34 | O=[N+]([O-])c1ccc(N2CCN(Cc3cccc(Br)c3)CC2)cc1 | 0.615 | 
35 | COc1ccc(CN2CCN(c3ccccc3)CC2)cc1Br | -0.42 | -1.1
36 | COc1ccc(CN2CCN(CCO)CC2)cc1Br | -0.09 | -0.335
37 | Cc1cccc(CN2CCN(Cc3ccc4c(c3)OCO4)CC2)c1 | -1.08 | 
38 | CN(C)CCC(=O)c1ccccc1 | 2.7 | 

Random excerpt: 2 compounds from above.
Row | Compound | T3 sensor activation Q score [1] | T2 sensor activation Q score [2]
17 | CCOc1ccc(/C=C/[N+](=O)[O-])cc1 | -1.23 | 
22 | COc1ccc(OC)c(CN2CCN(c3ccc(Cl)cc3)CC2)c1 | 0.46 | -0.39

The results go on:

Row | Compound | T3 sensor activation Q score [1] | T2 sensor activation Q score [2]
39 | COc1ccc(CN2CCN(c3ccc(F)cc3)CC2)cc1C | -0.55 | 
40 | COc1ccc(CN2CCN(c3ccccc3Cl)CC2)cc1 | -0.26 | -0.805
41 | Fc1ccc(N2CCN(Cc3cccc(Br)c3)CC2)cc1 | 0.205 | 0.24
42 | COc1ccc(Br)cc1CN1CCN(c2ccccc2C)CC1 | 0.135 | 0
43 | CCN1CCN(Cc2cc(Br)ccc2OC)CC1 | 0.3 | 0.185
44 | Cc1ccccc1N1CCN(Cc2ccc3c(c2)OCO3)CC1 | 0.45 | 0.235
45 | CN1CCN(Cc2cc(F)ccc2F)CC1 | 0.38 | -0.25
46 | Cc1ccccc1N1CCN(Cc2ccc(Cl)cc2)CC1 | 0.515 | -0.27
47 | OCCN1CCN(Cc2cccc(F)c2)CC1 | -0.315 | 0.865
48 | COc1ccccc1N1CCN(Cc2ccc(F)cc2)CC1 | -0.215 | -0.37
49 | COc1ccccc1N1CCN(Cc2cc(F)ccc2F)CC1 | 0.265 | -0.955
50 | COc1ccccc1CN1CCN(c2ccccc2)CC1 | 0.39 | -0.135
51 | COc1ccccc1CN1CCN(Cc2ccccc2)CC1 | -0.985 | -0.115
52 | CN1CCN(Cc2ccc(Cl)cc2Cl)CC1 | -0.15 | -0.73
53 | CCN1CCN(Cc2ccc(C)cc2)CC1 | -0.185 | -0.55
54 | COc1ccc(CC(=O)N2CCN(C)CC2)cc1 | -0.15 | -0.55
55 | CN1CCN(Cc2cccc(Cl)c2Cl)CC1 | 0.15 | 0.24
56 | O=[N+]([O-])c1ccc(NCCO)c2ncccc12 | 0.465 | -0.76
57 | Cc1ccccc1CN1CCN(c2ccccc2Cl)CC1 | -0.31 | -0.965
